These results are taken from PMC5397071.

These are yes or no findings as the source states them, for the method shown. Binding seen in cells or lysates may run through a third protein. Some binding calls cover weakened binding; strength is not graded here.

Assay [1] has as its target T1, MEIOC (mouse (endogenous in testis)) (UniProt A2AG06).
T1 sequence: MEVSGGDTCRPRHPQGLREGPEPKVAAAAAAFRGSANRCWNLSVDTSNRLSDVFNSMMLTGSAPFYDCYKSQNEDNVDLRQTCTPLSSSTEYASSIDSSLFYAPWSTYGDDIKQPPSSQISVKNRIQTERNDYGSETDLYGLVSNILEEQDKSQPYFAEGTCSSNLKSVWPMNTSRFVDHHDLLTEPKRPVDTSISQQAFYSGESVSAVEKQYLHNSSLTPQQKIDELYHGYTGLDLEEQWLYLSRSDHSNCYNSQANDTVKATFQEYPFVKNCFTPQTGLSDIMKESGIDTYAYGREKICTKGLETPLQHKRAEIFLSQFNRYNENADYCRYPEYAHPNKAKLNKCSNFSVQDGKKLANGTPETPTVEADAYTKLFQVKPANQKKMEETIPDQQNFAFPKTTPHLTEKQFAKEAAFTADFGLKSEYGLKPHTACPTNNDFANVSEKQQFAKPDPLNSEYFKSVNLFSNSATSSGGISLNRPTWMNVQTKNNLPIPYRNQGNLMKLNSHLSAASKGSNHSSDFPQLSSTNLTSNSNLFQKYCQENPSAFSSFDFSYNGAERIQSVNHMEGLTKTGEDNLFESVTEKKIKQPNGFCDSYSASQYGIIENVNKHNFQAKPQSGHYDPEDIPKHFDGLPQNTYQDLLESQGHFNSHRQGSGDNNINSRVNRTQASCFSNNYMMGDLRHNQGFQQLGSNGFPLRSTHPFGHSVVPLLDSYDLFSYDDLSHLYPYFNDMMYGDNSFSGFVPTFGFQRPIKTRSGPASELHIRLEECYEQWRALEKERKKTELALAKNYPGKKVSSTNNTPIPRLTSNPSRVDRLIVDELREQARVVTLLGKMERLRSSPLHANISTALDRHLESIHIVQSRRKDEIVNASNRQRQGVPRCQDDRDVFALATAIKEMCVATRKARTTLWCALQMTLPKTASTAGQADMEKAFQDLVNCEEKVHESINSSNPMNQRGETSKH
Nature of the assay: co-IP; anti-MEIOC or anti-YTHDC2 antibody or IgG control on Protein G Dynabeads; adult (3-month-old C57BL/6) testis lysate; 25mM Tris-HCl pH7.5, 150mM NaCl, 1.5mM MgCl2, 1mM DTT, 0.4% Triton X-100, Benzonase nuclease; overnight at 4°C; immunoblotting.

For assay [2], the target named is T2, YTHDC2 (mouse (endogenous in testis)) (UniProt B2RR83).
T2 sequence: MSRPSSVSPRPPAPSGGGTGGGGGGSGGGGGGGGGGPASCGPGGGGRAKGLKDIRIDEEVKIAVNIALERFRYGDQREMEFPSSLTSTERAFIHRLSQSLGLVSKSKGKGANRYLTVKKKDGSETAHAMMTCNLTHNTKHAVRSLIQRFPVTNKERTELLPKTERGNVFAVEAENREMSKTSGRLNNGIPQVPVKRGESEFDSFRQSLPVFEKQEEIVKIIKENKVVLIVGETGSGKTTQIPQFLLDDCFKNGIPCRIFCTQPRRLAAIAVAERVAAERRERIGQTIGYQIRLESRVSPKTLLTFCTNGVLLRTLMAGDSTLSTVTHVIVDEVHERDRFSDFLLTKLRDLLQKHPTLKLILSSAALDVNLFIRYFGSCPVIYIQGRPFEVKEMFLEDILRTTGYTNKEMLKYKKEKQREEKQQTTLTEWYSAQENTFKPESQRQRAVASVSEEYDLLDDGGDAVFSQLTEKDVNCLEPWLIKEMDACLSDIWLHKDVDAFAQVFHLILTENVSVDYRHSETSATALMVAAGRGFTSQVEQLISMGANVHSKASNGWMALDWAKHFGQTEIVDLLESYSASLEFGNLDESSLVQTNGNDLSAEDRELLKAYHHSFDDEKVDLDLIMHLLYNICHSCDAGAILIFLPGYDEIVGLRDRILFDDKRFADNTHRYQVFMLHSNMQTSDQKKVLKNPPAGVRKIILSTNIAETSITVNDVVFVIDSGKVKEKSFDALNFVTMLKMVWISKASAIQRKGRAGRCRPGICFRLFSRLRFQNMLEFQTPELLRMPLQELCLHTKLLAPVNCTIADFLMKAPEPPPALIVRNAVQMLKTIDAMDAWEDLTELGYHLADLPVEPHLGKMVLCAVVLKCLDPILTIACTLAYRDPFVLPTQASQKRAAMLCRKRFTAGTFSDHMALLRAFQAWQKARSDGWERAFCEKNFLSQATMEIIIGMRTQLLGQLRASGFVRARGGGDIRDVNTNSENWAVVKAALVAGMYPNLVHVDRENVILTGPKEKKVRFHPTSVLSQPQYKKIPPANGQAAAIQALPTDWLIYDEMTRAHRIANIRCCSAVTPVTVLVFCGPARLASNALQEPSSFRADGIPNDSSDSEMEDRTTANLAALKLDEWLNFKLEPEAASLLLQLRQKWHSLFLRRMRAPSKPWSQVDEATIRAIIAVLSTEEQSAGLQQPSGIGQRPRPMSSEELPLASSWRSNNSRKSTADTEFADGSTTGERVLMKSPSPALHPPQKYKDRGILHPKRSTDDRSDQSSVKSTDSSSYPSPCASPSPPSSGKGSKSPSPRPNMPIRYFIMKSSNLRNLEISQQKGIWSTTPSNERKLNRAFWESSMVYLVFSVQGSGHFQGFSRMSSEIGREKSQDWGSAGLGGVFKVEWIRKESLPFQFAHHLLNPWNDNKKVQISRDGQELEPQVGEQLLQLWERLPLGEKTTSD
Described as above.

B1: YTHDC2 (protein, UniProt B2RR83 1-1445)
chain: MSRPSSVSPRPPAPSGGGTGGGGGGSGGGGGGGGGGPASCGPGGGGRAKGLKDIRIDEEVKIAVNIALERFRYGDQREMEFPSSLTSTERAFIHRLSQSLGLVSKSKGKGANRYLTVKKKDGSETAHAMMTCNLTHNTKHAVRSLIQRFPVTNKERTELLPKTERGNVFAVEAENREMSKTSGRLNNGIPQVPVKRGESEFDSFRQSLPVFEKQEEIVKIIKENKVVLIVGETGSGKTTQIPQFLLDDCFKNGIPCRIFCTQPRRLAAIAVAERVAAERRERIGQTIGYQIRLESRVSPKTLLTFCTNGVLLRTLMAGDSTLSTVTHVIVDEVHERDRFSDFLLTKLRDLLQKHPTLKLILSSAALDVNLFIRYFGSCPVIYIQGRPFEVKEMFLEDILRTTGYTNKEMLKYKKEKQREEKQQTTLTEWYSAQENTFKPESQRQRAVASVSEEYDLLDDGGDAVFSQLTEKDVNCLEPWLIKEMDACLSDIWLHKDVDAFAQVFHLILTENVSVDYRHSETSATALMVAAGRGFTSQVEQLISMGANVHSKASNGWMALDWAKHFGQTEIVDLLESYSASLEFGNLDESSLVQTNGNDLSAEDRELLKAYHHSFDDEKVDLDLIMHLLYNICHSCDAGAILIFLPGYDEIVGLRDRILFDDKRFADNTHRYQVFMLHSNMQTSDQKKVLKNPPAGVRKIILSTNIAETSITVNDVVFVIDSGKVKEKSFDALNFVTMLKMVWISKASAIQRKGRAGRCRPGICFRLFSRLRFQNMLEFQTPELLRMPLQELCLHTKLLAPVNCTIADFLMKAPEPPPALIVRNAVQMLKTIDAMDAWEDLTELGYHLADLPVEPHLGKMVLCAVVLKCLDPILTIACTLAYRDPFVLPTQASQKRAAMLCRKRFTAGTFSDHMALLRAFQAWQKARSDGWERAFCEKNFLSQATMEIIIGMRTQLLGQLRASGFVRARGGGDIRDVNTNSENWAVVKAALVAGMYPNLVHVDRENVILTGPKEKKVRFHPTSVLSQPQYKKIPPANGQAAAIQALPTDWLIYDEMTRAHRIANIRCCSAVTPVTVLVFCGPARLASNALQEPSSFRADGIPNDSSDSEMEDRTTANLAALKLDEWLNFKLEPEAASLLLQLRQKWHSLFLRRMRAPSKPWSQVDEATIRAIIAVLSTEEQSAGLQQPSGIGQRPRPMSSEELPLASSWRSNNSRKSTADTEFADGSTTGERVLMKSPSPALHPPQKYKDRGILHPKRSTDDRSDQSSVKSTDSSSYPSPCASPSPPSSGKGSKSPSPRPNMPIRYFIMKSSNLRNLEISQQKGIWSTTPSNERKLNRAFWESSMVYLVFSVQGSGHFQGFSRMSSEIGREKSQDWGSAGLGGVFKVEWIRKESLPFQFAHHLLNPWNDNKKVQISRDGQELEPQVGEQLLQLWERLPLGEKTTSD
On to B1, for which the binding result in assay [1] is on record as “binds”.

B2: MEIOC (protein, UniProt A2AG06-1 1-965)
chain: MEVSGGDTCRPRHPQGLREGPEPKVAAAAAAFRGSANRCWNLSVDTSNRLSDVFNSMMLTGSAPFYDCYKSQNEDNVDLRQTCTPLSSSTEYASSIDSSLFYAPWSTYGDDIKQPPSSQISVKNRIQTERNDYGSETDLYGLVSNILEEQDKSQPYFAEGTCSSNLKSVWPMNTSRFVDHHDLLTEPKRPVDTSISQQAFYSGESVSAVEKQYLHNSSLTPQQKIDELYHGYTGLDLEEQWLYLSRSDHSNCYNSQANDTVKATFQEYPFVKNCFTPQTGLSDIMKESGIDTYAYGREKICTKGLETPLQHKRAEIFLSQFNRYNENADYCRYPEYAHPNKAKLNKCSNFSVQDGKKLANGTPETPTVEADAYTKLFQVKPANQKKMEETIPDQQNFAFPKTTPHLTEKQFAKEAAFTADFGLKSEYGLKPHTACPTNNDFANVSEKQQFAKPDPLNSEYFKSVNLFSNSATSSGGISLNRPTWMNVQTKNNLPIPYRNQGNLMKLNSHLSAASKGSNHSSDFPQLSSTNLTSNSNLFQKYCQENPSAFSSFDFSYNGAERIQSVNHMEGLTKTGEDNLFESVTEKKIKQPNGFCDSYSASQYGIIENVNKHNFQAKPQSGHYDPEDIPKHFDGLPQNTYQDLLESQGHFNSHRQGSGDNNINSRVNRTQASCFSNNYMMGDLRHNQGFQQLGSNGFPLRSTHPFGHSVVPLLDSYDLFSYDDLSHLYPYFNDMMYGDNSFSGFVPTFGFQRPIKTRSGPASELHIRLEECYEQWRALEKERKKTELALAKNYPGKKVSSTNNTPIPRLTSNPSRVDRLIVDELREQARVVTLLGKMERLRSSPLHANISTALDRHLESIHIVQSRRKDEIVNASNRQRQGVPRCQDDRDVFALATAIKEMCVATRKARTTLWCALQMTLPKTASTAGQADMEKAFQDLVNCEEKVHESINSSNPMNQRGETSKH
Take B2: in assay [2], the binding entry was “binds”.
